Results deposited as PubChem BioAssay AID1224830 (NIAID, 2016)
This is one part, drawn at random, of about 18,000 deposited reagents. About 2,900 of all reagents (16%) count as active. 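Calls are made per well; low scores hint the gene aids the LPS response, high scores that it dampens it.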 A number with no mark means an inactive call. Repeated entries: four replicate wells of each siRNA pool. Reagent sequences are not shown.

Assay: 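Regulators of TLR4 signalling towards TNF-alpha in macrophage-like cells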 (primary screen)
Cell system: human THP-1 monocytic leukaemia cells, TNF dual-luciferase reporter clone, PMA-differentiated to macrophage-like cells
Knock-down reagent: siRNA pool against human genes, 50 nM
Time to read-out: LPS for 4 h, given about 3 days after siRNA transfection
Treatment: bacterial LPS (TLR4 ligand), 10 ng/ml
Detection: 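TNF firefly reporter luminescence divided by renilla, normalised to the plate median, then turned into a robust z-score for each replicate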
Direction: TNF reporter robust z-score: higher = stronger TNF reporter response to LPS
Call rule: 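Each well counts as active if its z-score is over 2.8 or under -1.5; controls are left without a call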

With FAM91A1, what does the deposit list?
TNF reporter robust z-score: 0.06

With FAM91A1, what does the deposit list?
TNF reporter robust z-score: -0.65

How did the screen score FAM91A1?
TNF reporter robust z-score: 0.45

With FAM91A1, what does the deposit list?
TNF reporter robust z-score: 1.07

With REXO4, how do the results read?
TNF reporter robust z-score: -0.57

What is on record for REXO4?
TNF reporter robust z-score: -0.23

With REXO4, how do the results read?
TNF reporter robust z-score: -0.01

For REXO4, how do the results read?
TNF reporter robust z-score: 0.1

With SLC9D1, how do the results read?
TNF reporter robust z-score: -0.32

What did the screen give for SLC9D1?
TNF reporter robust z-score: -0.67

What did the screen give for SLC9D1?
TNF reporter robust z-score: -0.68

What did the screen give for SLC9D1?
TNF reporter robust z-score: -0.86

For EVX2, how do the results read?
TNF reporter robust z-score: -0.13

With EVX2, what was measured?
TNF reporter robust z-score: 0.23

What is on record for EVX2?
TNF reporter robust z-score: -0.36

Which result is listed for EVX2?
TNF reporter robust z-score: 0.83

For PRR15, how do the results read?
TNF reporter robust z-score: 2.54

For PRR15, what was measured?
TNF reporter robust z-score: 2.09

What did the screen give for PRR15?
TNF reporter robust z-score: 2.92 (active)

With PRR15, what was measured?
TNF reporter robust z-score: 3.6 (active)

For SETD1A, what does the deposit list?
TNF reporter robust z-score: -0.55

With SETD1A, what was measured?
TNF reporter robust z-score: 0.21

How did the screen score SETD1A?
TNF reporter robust z-score: 1.8

How did the screen score SETD1A?
TNF reporter robust z-score: 0.79

For DPP8, how do the results read?
TNF reporter robust z-score: 0.7

How did the screen score DPP8?
TNF reporter robust z-score: -0.44

With DPP8, what was measured?
TNF reporter robust z-score: -1.21

For DPP8, what does the deposit list?
TNF reporter robust z-score: 0.29

For JAK3, what was measured?
TNF reporter robust z-score: 1.23

For JAK3, what does the deposit list?
TNF reporter robust z-score: 0.77

For JAK3, what was measured?
TNF reporter robust z-score: 0.21

For JAK3, what was measured?
TNF reporter robust z-score: 0

With STAC, what does the deposit list?
TNF reporter robust z-score: -0.37

What did the screen give for STAC?
TNF reporter robust z-score: -0.02

What is on record for STAC?
TNF reporter robust z-score: 0.25

What did the screen give for STAC?
TNF reporter robust z-score: -0.51

How did the screen score DPF1?
TNF reporter robust z-score: -1.28

What is on record for DPF1?
TNF reporter robust z-score: 2.05

Which result is listed for DPF1?
TNF reporter robust z-score: -1.58 (active)

How did the screen score DPF1?
TNF reporter robust z-score: -1.05

For BTBD10, what was measured?
TNF reporter robust z-score: -0.43

What did the screen give for BTBD10?
TNF reporter robust z-score: 0.28

Which result is listed for BTBD10?
TNF reporter robust z-score: 1.31

For BTBD10, how do the results read?
TNF reporter robust z-score: -1.55 (active)

Which result is listed for LIMCH1?
TNF reporter robust z-score: 0.21

What did the screen give for LIMCH1?
TNF reporter robust z-score: -0.1

What is on record for LIMCH1?
TNF reporter robust z-score: -0.13

What did the screen give for LIMCH1?
TNF reporter robust z-score: -0.06

In a second layout: results already given.
{"gene symbol": "DPP8", "TNF reporter robust z-score": 0.7}
{"gene symbol": "DPP8", "TNF reporter robust z-score": -0.44}
{"gene symbol": "DPP8", "TNF reporter robust z-score": -1.21}
{"gene symbol": "DPP8", "TNF reporter robust z-score": 0.29}
{"gene symbol": "JAK3", "TNF reporter robust z-score": 1.23}
